Results: article PMC11110238, “Synthesis of novel carbazole hydrazine-carbothioamide scaffold as potent antioxidant, anticancer and antimicrobial agents” (BMC Chemistry, 2024)
Converted amounts (≈) assume the structure as drawn.

Tested on: Candida albicans
Assay: MIC and MBC test, C. albicans
Assay type: cell-based
Procedure: Using Muller Hinton agar medium, the antibacterial activity was evaluated by using 24 h cultures of Escherichia coli, Staphylococcus aureus, and Candida albicans. E. coli and S. aureus were incubated in 1% Mueller Hinton Broth (MHB) liquid medium at 37 °C for 24 h; C. albicans was incubated in Sabouraud Dextrose Broth (SDB) at 30 °C for 48 h. MIC (Minimum Inhibitory Concentration) and MBC (Minimum Bactericidal Concentration) tests were performed to determine antimicrobial activity. This stage was carried out in a sterile cabinet.
The density of microorganisms in fresh cultures was adjusted according to the MacFarland 0.5 scale. For that, the microorganisms were centrifuged at 4000 rpm for 20 min. The supernatant was poured off, and the pellet was washed with 1 mL of 0.9% NaCl solution (physiological saline). The centrifugation was then repeated. The pellet was dissolved again with saline solution and adjusted to 0.5 MacFarland. In the experiment performed in a sterile 96-well plate, compound 4o was diluted ½ with DMSO to prepare a stock solution. […]
After incubation, 10 µl of the sample was taken, dropped onto the respective media, and incubated for 24 h at appropriate temperatures to clearly distinguish the residues left by the compound 4o and the growth of microorganisms. […] After incubation, MIC and MBC values were determined. […]

MIC: 1.63 µM (≈ 0.499 µg/mL)
SMILES: OC(Cn1cncn1)(Cn1cncn1)c1ccc(F)cc1F [fluconazole, reference compound]
